Data source: PubChem BioAssay AID1508588 (Peter MacCallum Cancer Centre, 2020)
Here is a random part of about 18,000 reagents. Of all reagents, 790 (4.4%) got an active call. 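Calls rest on a combination of fold-change classes in drug and vehicle arms, not all shown here.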 Entries without a mark were called inactive. Some reagents were tested in more than one well and are listed for each. Reagent sequences are not shown.

Purpose: 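Genome-wide search for knock-downs that heighten vemurafenib action in melanoma cells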 (primary screen)
Cell system: human WM266.4 melanoma cells (BRAF V600 mutant)
Reagents: siRNA pool against human genes, 40 nM
Duration: 96 h from transfection to read-out
Conditions: vemurafenib 300 nM (about IC25), added 48 h after transfection, for 48 h; comparison arm got DMSO vehicle only
Measured: 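Ratios to non-targeting siRNA for cell gain, counted as DAPI nuclei after minus before drug and averaged over two replicates, and for absorbance-read medium lactate per cell; both binned into fold-change classes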
Scale: cell gain with vemurafenib: higher = more cell gain than with non-targeting siRNA; lactate per cell with vemurafenib: higher = more lactate made per cell
Call rule: 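Enhancement is called by pairing each knock-down's vehicle-arm and drug-arm fold-change classes for viability or glycolysis; which class combinations qualify is not given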
Meaning of the calls: active = enhances vemurafenib effect; inactive = no enhancement seen

gene | cell gain with vemurafenib | lactate per cell with vemurafenib
UBD | 0.82 | 0.9
MAP2K3 | -0.12 (active) | -0.04
GPC3 | 0.55 | 0.6
FIGLA | 0.61 | 0.85
CREBZF | 0.48 | 1.64
RILPL1 | 0.69 | 0.8
AP5M1 | 0.4 | 1.21
AXL | 0.71 (active) | 0.18
OR1J1 | 0.42 | 0.68
SPTBN5 | 0.66 | 1.45
C1orf116 | 0.87 | 1.14
TSFM | 0.75 | 0.84
RFXANK | -0.04 | 1.46
PKLR | 0.94 | 1.09
TRIM69 | 0.35 | 1.7
NKAPL | 0.51 | 0.71
NADK2 | 0.6 | 0.8
DUSP18 | 0.44 | 1.34
EGFL6 | 0.02 | 1.58
NCR2 | 0.92 | 0.8
MC2R | 0.61 (active) | 0.68
SLC35G2 | 0.53 | 0.82
ASCL1 | 0.42 | 0.88
CYP1A2 | 0.96 | 1.21
COL5A3 | 1.3 | 0.86
TGM4 | 0.59 | 0.96
H4C14 | 0.79 | 0.67
ISOC2 | 0.69 | 0.48
BATF | 0.23 | 2.25
POMK | 0.55 | 1.31
POMK | 0.55 | 1.48
DDX27 | 0.44 | 0.74
LAMTOR2 | 0.02 | 1.36
TIPE1 | 0.31 | 1.27
ARL10 | 0.55 | 1.04
CTIF | 0.23 | 2.32
MZT2B | 0.3 | 2.24
TIE1 | 0.41 | 1.47
DRD2 | 0.58 | 0.75
CYBC1 | 0.54 | 1.38
CSPG4 | 0.77 | 1.27
ABHD16A | 0.4 | 1.29
SEMA3E | 0.72 | 1.04
FANCC | 0.35 | 2.02
ARHGAP32 | 0.46 | 0.82
PSG4 | 0.67 | 0.69
SKAP2 | 0.95 | 0.36
HMCN1 | 0.11 | 1.21
ATPSCKMT | 0.43 | 1.25
DOK4 | 0.55 | 0.86
ALPL | 0.37 (active) | 0.6
PCDH20 | 0.86 | 0.59
OLFML2A | 0.14 | 1.36
OR11A1 | 1.03 | 0.36
DNAH1 | 0.55 | 1.31
MRPL42 | -0.03 | 0.3
EMP3 | 0.37 (active) | 0.3
METAP1 | 0.68 | 1.04
ZNF713 | 0.34 | 0.61
HS3ST5 | 0.55 | 1.27
SPINT2 | 1.74 | 0.82
DMTF1 | 0.4 | 1.15
C4orf36 | 0.29 | 1.36
CCDC162P | 0.71 | 1.04
TSSK6 | 0.54 | 0.66
TSSK6 | 0.3 | 1.92
ECPAS | 0.44 | 0.26
ITGBL1 | 0.75 | 0.62
TIMM9 | 0.46 | 0.78
OR5H2 | 0.85 | 0.6
PIK3R5 | 0.24 | 1.48
SF3A2 | 0.08 | 1.5
SLC12A1 | 0.2 | 0.92
CASP7 | 0.86 | 0.86
OPN1LW | 0.7 | 0.82
TRPC1 | -0.02 | 1.34
CEBPB | 0.88 | 0.48
HEMK1 | 0.5 | 0.83
ZNF839 | 0.7 | 0.52
SELENOO | 0.78 | 1.25
LGALS1 | 0.29 | 1.25
HTATSF1 | 0.48 | 1.31
MTREX | 0.61 | 1.1
EXOSC10 | -0.12 | 2

Reprinted from above for reference:
gene | cell gain with vemurafenib | lactate per cell with vemurafenib
DUSP18 | 0.44 | 1.34
EGFL6 | 0.02 | 1.58
NCR2 | 0.92 | 0.8
MC2R | 0.61 (active) | 0.68
SLC35G2 | 0.53 | 0.82
ASCL1 | 0.42 | 0.88
CYP1A2 | 0.96 | 1.21
COL5A3 | 1.3 | 0.86
TGM4 | 0.59 | 0.96
H4C14 | 0.79 | 0.67
